Test results: article PMC8833744, “Strategic Decoy Peptides Interfere with MSI1/AGO2 Interaction to Elicit Tumor Suppression Effects” (Cancers, 2022)
These are yes or no findings as the source states them, for the method shown. In cells and extracts the contact can be indirect. Some results given as binding are weak or reduced against the parent protein; the word gives no strength.

Chains of the proteins cited; added tags and fusions are not shown.
UniProt Q9UKV8: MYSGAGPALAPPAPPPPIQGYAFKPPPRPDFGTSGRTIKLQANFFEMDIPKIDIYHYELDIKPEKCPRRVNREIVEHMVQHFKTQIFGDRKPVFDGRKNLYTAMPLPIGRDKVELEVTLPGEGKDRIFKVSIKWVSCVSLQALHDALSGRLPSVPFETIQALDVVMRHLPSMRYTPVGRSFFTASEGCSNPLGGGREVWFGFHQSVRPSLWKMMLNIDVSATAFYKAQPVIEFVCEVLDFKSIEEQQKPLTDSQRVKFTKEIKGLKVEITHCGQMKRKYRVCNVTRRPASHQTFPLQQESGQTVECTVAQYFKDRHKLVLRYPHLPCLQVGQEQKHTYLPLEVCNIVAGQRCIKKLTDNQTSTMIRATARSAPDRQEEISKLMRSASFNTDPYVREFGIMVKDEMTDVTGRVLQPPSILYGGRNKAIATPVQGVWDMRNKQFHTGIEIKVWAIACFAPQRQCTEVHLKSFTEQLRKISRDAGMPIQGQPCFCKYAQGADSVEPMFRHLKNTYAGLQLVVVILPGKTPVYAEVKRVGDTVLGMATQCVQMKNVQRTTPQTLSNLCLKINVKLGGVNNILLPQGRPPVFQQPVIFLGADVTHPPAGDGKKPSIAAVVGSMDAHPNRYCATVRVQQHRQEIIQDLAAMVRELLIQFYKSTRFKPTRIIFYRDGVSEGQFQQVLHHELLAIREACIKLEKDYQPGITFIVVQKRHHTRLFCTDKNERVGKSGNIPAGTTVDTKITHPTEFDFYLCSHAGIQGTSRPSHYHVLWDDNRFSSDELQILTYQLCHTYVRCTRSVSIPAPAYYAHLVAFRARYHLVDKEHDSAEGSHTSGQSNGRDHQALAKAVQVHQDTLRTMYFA
UniProt O43347: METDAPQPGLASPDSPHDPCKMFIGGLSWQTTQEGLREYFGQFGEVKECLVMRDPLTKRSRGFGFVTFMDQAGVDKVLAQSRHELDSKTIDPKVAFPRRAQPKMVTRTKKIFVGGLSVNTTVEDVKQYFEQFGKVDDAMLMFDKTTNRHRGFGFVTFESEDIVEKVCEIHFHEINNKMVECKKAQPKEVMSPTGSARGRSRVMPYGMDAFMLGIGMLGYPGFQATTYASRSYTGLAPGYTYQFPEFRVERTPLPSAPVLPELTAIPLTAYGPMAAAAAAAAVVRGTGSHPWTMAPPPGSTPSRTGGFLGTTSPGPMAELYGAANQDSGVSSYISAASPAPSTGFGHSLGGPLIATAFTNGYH

Target: AGO2 fused to the C-terminal fragment of Gaussia luciferase (A-CGluc) (UniProt Q9UKV8)
Experiment: split reporter; split Gaussia luciferase reconstitution, M-NGluc and A-CGluc in DBTRG-05MG stable cells; PBS-treated (no cisplatin); luminescence by IVIS

- binding: binds weakly
Substance: MSI1 fused to the N-terminal fragment of Gaussia luciferase (M-NGluc) (from UniProt O43347 1-362)
